Measured values taken from patent US8216786B2, “Genetic polymorphisms associated with cardiovascular diseases, methods of detection and uses thereof” (Celera Corporation, priority 2008, dated 2012).
This continues a long series; more values of the same kind are listed elsewhere.

Tested on: individuals who have previously had an MI
Assay: CARE trial: effect of pravastatin vs placebo on coronary events (endpt1, rmi) by SNP genotype subgroup
Type: in vivo, human
Conditions: endpt1
Protocol: In Tables 21-22, the column labeled “Endpoint” indicates whether the endpoint that was analyzed was the primary endpoint of the CARE study (a composite endpoint of fatal coronary event or nonfatal MI, and identified as “endpt1”) or a composite endpoint of confirmed fatal or nonfatal MI (identified as “rmi”). […] As used herein, the term “benefit” (with respect to a preventive or therapeutic drug treatment) is defined as achieving a reduced risk for a disease that the drug is intended to treat or prevent (e.g., CVD such as CHD, particularly MI, or hypertension) by administering the drug treatment, compared with the risk for the disease in the absence of receiving the drug treatment (or receiving a placebo in lieu of the drug treatment) for the same genotype. […] J. […] (1996) New England Journal of Medicine 335: 1001-1009. […] A well-documented MI was one of the enrollment criteria for entry into the CARE study. Patients were enrolled in the CARE trial from 80 participating study centers. […] For the study of CARE described in this Example and shown in Tables 21-22, two endpoints were investigated: the primary endpoint of CARE (a composite endpoint of fatal coronary event or nonfatal MI, and identified as “endpt1” in the Endpoint column of Tables 21-22) and a composite endpoint of confirmed fatal or nonfatal MI (identified as “rmi” in the Endpoint column of Tables 21-22). […] HR stands for Hazard Ratio, which is a concept similar to Odds Ratio (OR). The HR in event-free survival analysis is the effect of an explanatory variable on the hazard or risk of an event. […] In Table 21, p-interaction values were calculated. An interaction (or effect modification) is formed when a third variable modifies the relation between an exposure and outcome. […] Genotype and drug interaction is present when the effect of statins (incidence rate of disease in statin-treated group, as compared to placebo) differs in patients with different genotypes.

[1] = hCV15851335 rs17610395 CPT1A, Strata TC + TT
[2] = hCV15851779 rs2230009 WRN, Strata AA
[3] = hCV15851779 rs2230009 WRN, Strata AG
[4] = hCV15851779 rs2230009 WRN, Strata GG
[5] = hCV15870728 rs2943245 C10orf64, strata CC
[6] = hCV15876011 rs2228541 SERPINA6, Strata GG
[7] = hCV15876011 rs2228541 SERPINA6, Strata GT + TT
[8] = hCV15954277 rs2236379 PRKCQ, Strata AA
[9] = hCV15954277 rs2236379 PRKCQ, Strata AG + GG
[10] = hCV15955388 rs2227376 F2RL3, Strata CC
[11] = hCV15955388 rs2227376 F2RL3, Strata TC + TT
[12] = hCV15963535 rs2228591 NCOA2, Strata CC
[13] = hCV15963535 rs2228591 NCOA2, Strata GC + GG
[14] = hCV16044337 rs2569491 KLK14, Strata AA
[15] = hCV16044337 rs2569491 KLK14, Strata AG + GG
[16] = hCV16047108 rs2244008 LAMA2, Strata AA
[17] = hCV16047108 rs2244008 LAMA2, Strata GA + GG
[18] = hCV16172339 rs2229489 HSPG2, Strata PA
[19] = hCV16172339 rs2229489 HSPG2, Strata TA + TT
[20] = hCV16173091 rs2241883 FABP1, Strata CC
[21] = hCV16173091 rs2241883 FABP1, Strata CT + TT
[22] = hCV16179493 rs2106622 CYP4F2, Strata CC
[23] = hCV16179493 rs2108622 CYP4F2, Strata TC + TT
[24] = hCV16179628 rs2273697 ABCC2, Strata AA
[25] = hCV16179628 rs2273697 ABCC2, Strata AG + GG
[26] = hCV16182835 rs2274736 PTPN21, Strata AA
[27] = hCV16182835 rs2274736 PTPN21, Strata GA + GG
[28] = hCV16192174 rs2305948 KDR, Strata AG + AA
[29] = hCV16192174 rs2305948 KDR, Strata GG
[30] = hCV22271999 rs2305946 KDR, Strata TC + TT
[31] = hCV22271999 rs2305948 KDR, Strata CC
[32] = hCV22274761 rs11575194 IGFBP5, Strata AG + AA
[33] = hCV22274761 rs11575194 IGFBP5, Strata GG
[34] = hCV22275550 rs6836335 SPON2, Strata CC
[35] = hCV22275550 rs6836335 SPON2, Strata CT + TT
[36] = hCV25472345 rs4900072 C14orf159, Strata TC + CC
[37] = hCV25472345 rs4900072 C14orf159, Strata TT
[38] = hCV25472673 rs1805081 NPC1, Strata CT + CC
[39] = hCV25472673 rs1805081 NPC1, Strata TT
[40] = hCV25473098 rs2241883 FABP1, Strata GA + AA
[41] = hCV25473098 rs2241883 FABP1, Strata GG
[42] = hCV25474101 rs41554412 MICA, Strata CC
[43] = hCV25474101 rs41554412 MICA, Strata CT + TT
[44] = hCV25591528 CD163, Strata AG + AA
[45] = hCV25596880 rs4647297 CASP2, Strata CC
[46] = hCV25596880 rs4647297 CASP2, Strata CG
[47] = hCV25596880 rs4647297 CASP2, Strata GG
[48] = hCV25598594 rs41274768 CR1, Strata AG + AA
[49] = hCV25598594 rs41274768 CR1, Strata GG
[50] = hCV25603879 rs11542844 SCNN1A, Strata CC
[51] = hCV25603879 rs11542844 SCNN1A, Strata TC + TT

SMILES: CC[C@H](C)C(=O)O[C@H]1C[C@H](O)C=C2C=C[C@H](C)[C@H](CC[C@@H](O)C[C@@H](O)CC(=O)O)[C@H]21 [pravastatin]
- NONEVENT (Pravastatin arm) (hCV15851335 rs17610395 CPT1A, Strata CC): 1123
- EVENTS (Pravastatin arm) [1]: 21
- NONEVENT (Pravastatin arm) [1]: 164
- EVENTS (Pravastatin arm) [2]: 0
- NONEVENT (Pravastatin arm) [2]: 6
- EVENTS (Pravastatin arm) [3]: 20
- NONEVENT (Pravastatin arm) [3]: 132
- EVENTS (Pravastatin arm) [4]: 113
- NONEVENT (Pravastatin arm) [4]: 1150
- EVENTS (Pravastatin arm) [5]: 30
- NONEVENT (Pravastatin arm) [5]: 340
- EVENTS (Pravastatin arm) [6]: 35
- NONEVENT (Pravastatin arm) [6]: 261
- EVENTS (Pravastatin arm) [7]: 96
- NONEVENT (Pravastatin arm) [7]: 991
- EVENTS (Pravastatin arm) [8]: 13
- NONEVENT (Pravastatin arm) [8]: 103
- EVENTS (Pravastatin arm) [9]: 120
- NONEVENT (Pravastatin arm) [9]: 1188
- EVENTS (Pravastatin arm) [10]: 132
- NONEVENT (Pravastatin arm) [10]: 1247
- EVENTS (Pravastatin arm) [11]: 1
- NONEVENT (Pravastatin arm) [11]: 42
- EVENTS (Pravastatin arm) [12]: 124
- NONEVENT (Pravastatin arm) [12]: 1155
- EVENTS (Pravastatin arm) [13]: 8
- NONEVENT (Pravastatin arm) [13]: 132
- EVENTS (Pravastatin arm) [14]: 7
- NONEVENT (Pravastatin arm) [14]: 127
- EVENTS (Pravastatin arm) [15]: 126
- NONEVENT (Pravastatin arm) [15]: 1157
- EVENTS (Pravastatin arm) [16]: 104
- NONEVENT (Pravastatin arm) [16]: 1148
- EVENTS (Pravastatin arm) [17]: 28
- NONEVENT (Pravastatin arm) [17]: 140
- EVENTS (Pravastatin arm) [18]: 121
- NONEVENT (Pravastatin arm) [18]: 1140
- EVENTS (Pravastatin arm) [19]: 11
- NONEVENT (Pravastatin arm) [19]: 147
- EVENTS (Pravastatin arm) [20]: 18
- NONEVENT (Pravastatin arm) [20]: 126
- EVENTS (Pravastatin arm) [21]: 115
- NONEVENT (Pravastatin arm) [21]: 1164
- EVENTS (Pravastatin arm) [22]: 54
- NONEVENT (Pravastatin arm) [22]: 613
- EVENTS (Pravastatin arm) [23]: 77
- NONEVENT (Pravastatin arm) [23]: 670
- EVENTS (Pravastatin arm) [24]: 1
- NONEVENT (Pravastatin arm) [24]: 68
- EVENTS (Pravastatin arm) [25]: 132
- NONEVENT (Pravastatin arm) [25]: 1220
- EVENTS (Pravastatin arm) [26]: 70
- NONEVENT (Pravastatin arm) [26]: 555
- EVENTS (Pravastatin arm) [27]: 62
- NONEVENT (Pravastatin arm) [27]: 703
- EVENTS (Pravastatin arm) [28]: 37
- NONEVENT (Pravastatin arm) [28]: 248
- EVENTS (Pravastatin arm) [29]: 96
- NONEVENT (Pravastatin arm) [29]: 1043
- EVENTS (Pravastatin arm) [30]: 37
- NONEVENT (Pravastatin arm) [30]: 248
- EVENTS (Pravastatin arm) [31]: 96
- NONEVENT (Pravastatin arm) [31]: 1041
- EVENTS (Pravastatin arm) [32]: 6
- NONEVENT (Pravastatin arm) [32]: 108
- EVENTS (Pravastatin arm) [33]: 126
- NONEVENT (Pravastatin arm) [33]: 1175
- EVENTS (Pravastatin arm) [34]: 3
- NONEVENT (Pravastatin arm) [34]: 15
- EVENTS (Pravastatin arm) [35]: 129
- NONEVENT (Pravastatin arm) [35]: 1270
- EVENTS (Pravastatin arm) [36]: 124
- NONEVENT (Pravastatin arm) [36]: 1108
- EVENTS (Pravastatin arm) [37]: 8
- NONEVENT (Pravastatin arm) [37]: 154
- EVENTS (Pravastatin arm) [38]: 74
- NONEVENT (Pravastatin arm) [38]: 803
- EVENTS (Pravastatin arm) [39]: 59
- NONEVENT (Pravastatin arm) [39]: 484
- EVENTS (Pravastatin arm) [40]: 115
- NONEVENT (Pravastatin arm) [40]: 1165
- EVENTS (Pravastatin arm) [41]: 18
- NONEVENT (Pravastatin arm) [41]: 124
- EVENTS (Pravastatin arm) [42]: 7
- NONEVENT (Pravastatin arm) [42]: 25
- EVENTS (Pravastatin arm) [43]: 126
- NONEVENT (Pravastatin arm) [43]: 1266
- EVENTS (Pravastatin arm) [44]: 19
- NONEVENT (Pravastatin arm) [44]: 296
- EVENTS (Pravastatin arm) (hCV25591528 CD163, Strata GG): 114
- NONEVENT (Pravastatin arm) (hCV25591528 CD163, Strata GG): 994
- EVENTS (Pravastatin arm) [45]: 2
- NONEVENT (Pravastatin arm) [45]: 3
- EVENTS (Pravastatin arm) [46]: 12
- NONEVENT (Pravastatin arm) [46]: 136
- EVENTS (Pravastatin arm) [47]: 118
- NONEVENT (Pravastatin arm) [47]: 1150
- EVENTS (Pravastatin arm) [48]: 1
- NONEVENT (Pravastatin arm) [48]: 65
- EVENTS (Pravastatin arm) [49]: 132
- NONEVENT (Pravastatin arm) [49]: 1226
- EVENTS (Pravastatin arm) [50]: 122
- NONEVENT (Pravastatin arm) [50]: 1200
- EVENTS (Pravastatin arm) [51]: 11
- NONEVENT (Pravastatin arm) [51]: 89
